# System: A. viscosus biofilm
# Assay: Single species A. viscosus biofilm assay (Biofilm Eradication Concentration, BEC50)
# Type: cell-based
# Method: TBHQ and a series of actives were tested in single species of A. viscosus biofilm assay. The data described in Tables 2 and 3 (below) is reported as the Biofilm Eradication Concentration (BEC50) which is the lowest concentration at which greater than 50% reduction in biofilm biomass is observed relative to control.
structure (smiles),measurement,setting,value
"CCCCCCCCCCCCCCCC[n+]1ccccc1 [Cetylpyridinium chloride, reference compound]",BEC50 of Active + 50 ppm TBHQ,active combined with 50 ppm TBHQ,<0.03 ppm
same,BEC50 of Active Alone,"lowest concentration with greater than 50% reduction in biofilm biomass relative to control, TBHQ tested at 50 ppm",0.97 ppm

# Source: US9119879B2, “Oral care compositions comprising a quinone and a further antimicrobial agent” (Colgate-Palmolive Company, priority 2010, dated 2015)
